In PubChem BioAssay AID504648 (National Center for Advancing Translational Sciences (NCATS), 2011):
Screen size: about 390,000 compounds; about 610 (0.16%) were called active. Inconclusive results, whose numbers are uncertain, are shown with a selection of clear calls. Calls come from the whole dose curve; as a rule, active = well fitted inhibition curve with a large enough effect; inconclusive = small, poorly fitted or top-dose-only effect, or effect the other way, or another doubt; inactive = no such curve, though single readings can be large or run the other way. Potencies beside an inconclusive call are fits to weak or partial responses and may not hold up.

Test: Nrf2 qHTS screen for inhibitors: counterscreen for cytotoxicity
Conditions: A549 ARE-Fluc cells, CellTiter-Fluor viability, 18-24 h; activity change, negative = cytotoxicity: at 46 µM (top of the series)
Method in brief: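 A549 ARE_Fluc cells in 5% FBS OPTI-MEM were exposed to compounds in concentration-response for 18-24 h at 37 deg C. Viability was read by CellTiter-Fluor fluorescence (Ex 405/Em 525) after 30 min, before the luciferase read.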
% is set by controls: 0 for no effect and ±100 for the full control effect; potency is the fitted concentration of half-maximal effect.

| SMILES | activity change, negative = cytotoxicity | Potency |
| --- | --- | --- |
| NC(=O)C(=O)N/N=C/c1c(F)c(F)c(F)c(F)c1F | inactive: -5.26% | – |
| c1ccc(COc2ccccc2CNCc2cccnc2)cc1 | – | inconclusive: 4.61 µM [activator, partial curve, poor fit] |
| Cc1ccc(Cl)cc1-n1ncc2c(NCCC3=CCCCC3)ncnc21 | – | inconclusive: 23.1 µM [falling, single point] |
| Cc1cccc(Cl)c1NC(=O)N1CCCN(c2nc3ccc(Cl)cc3s2)CC1 | – | inconclusive: 23.1 µM [falling, single point] |
| Cc1cccn2c(=O)cc(COc3ccc(NC(=O)C(C)Oc4ccccc4)cc3)nc12 (centres undefined) | inactive: -0.0926% | – |
| N#CC(C(=O)c1ccc(S(=O)(=O)N2CCCCCC2)cc1)c1nc2ccccc2[nH]1 (centres undefined) | – | inconclusive: 23.1 µM [falling, partial curve] |
| CCCCn1nc(C(=O)NCC(c2cccs2)N2CCOCC2)c2ccccc2c1=O (centres undefined) | inactive: -2.28% | – |
| Fc1ccc(-n2cc(CNCCc3cccnc3)c(-c3ccccc3Cl)n2)cc1 | – | inconclusive: 25.9 µM [falling, partial curve] |
| O=C(Nc1ccc2oc(-c3ccccc3)nc2c1)c1ccc2c(c1)OCCO2 | – | inconclusive: 20.6 µM [falling, partial curve, poor fit] |
| COc1cc(CN2CCCC(C(=O)c3ccc(C(C)(C)C)cc3)C2)cc(OC)c1O (centres undefined) | – | inconclusive: 23.1 µM [falling, partial curve, poor fit] |
| COc1cc([C@@H]2c3cc4c(cc3[C@@H](O)[C@H]3COC(=O)[C@H]23)OCO4)cc(OC)c1O[Si](C)(C)C(C)(C)C | – | inconclusive: 18.4 µM [falling, single point] |
| COc1ccc(C(=O)N(Cc2ccccc2)Cc2ccc(OC)c(COc3ccc(NC(C)=O)cc3)c2)cc1 | inactive: -2.82% | – |
| COC1=C(Nc2ccccc2OC)C(=O)c2ccccc2C1=O | inactive: 1.07% | – |
| COc1cc(C)ccc1OCCCOc1c(Cl)cccc1Cl | – | inconclusive: 16.4 µM [activator, partial curve, poor fit] |
| COC(=O)N/N=C\c1c(C)[nH]n(-c2ccccc2)c1=O | – | inconclusive: 16.4 µM [falling, partial curve, poor fit] |
| O=C(C[C@H]1C/C=C\CC[C@@H](Cc2ccc(F)cc2)C(=O)OC[C@H]2CCCN2C1=O)N[C@@H](CO)Cc1ccccc1 | – | inconclusive: 25.9 µM [falling, partial curve, poor fit] |
| CCc1ccc(-c2cn3nc(C)c(C)nc3n2)cc1 | – | inconclusive: 14.6 µM [activator, partial curve] |
| CCn1c(O)c(N=Nc2ccc(Cl)c(C(=O)O)c2)c2ccccc21 | – | inconclusive: 20.6 µM [falling, partial curve, poor fit] |
| CC(C)C(=O)NC(c1cccs1)c1cc([N+](=O)[O-])c2cccnc2c1O (centres undefined) | – | inconclusive: 20.6 µM [falling, partial curve] |
| CC1CCCN(S(=O)(=O)c2ccc([N+](=O)[O-])cc2)C1 (centres undefined) | – | inconclusive: 13 µM [activator, partial curve, poor fit] |

Taken from the entries so far, 3 compounds:

| SMILES | activity change, negative = cytotoxicity | Potency |
| --- | --- | --- |
| COc1cc([C@@H]2c3cc4c(cc3[C@@H](O)[C@H]3COC(=O)[C@H]23)OCO4)cc(OC)c1O[Si](C)(C)C(C)(C)C | – | inconclusive: 18.4 µM [falling, single point] |
| COc1ccc(C(=O)N(Cc2ccccc2)Cc2ccc(OC)c(COc3ccc(NC(C)=O)cc3)c2)cc1 | inactive: -2.82% | – |
| COC1=C(Nc2ccccc2OC)C(=O)c2ccccc2C1=O | inactive: 1.07% | – |

(more compounds)

| SMILES | activity change, negative = cytotoxicity | Potency |
| --- | --- | --- |
| COc1ccccc1Nc1nc(NCC(C)C)nc(N)c1[N+](=O)[O-] | – | inconclusive: 29.1 µM [falling, partial curve, poor fit] |
| O=C1CCCc2ccccc2N1Cc1ccc(Cl)cc1 | – | inconclusive: 23.1 µM [activator, partial curve, poor fit] |
| COC(=O)c1c(-c2cccs2)csc1NC(=O)COc1ccccc1 | – | inconclusive: 7.31 µM [falling, partial curve, poor fit] |
| O=C(Nc1ccccc1)c1ccccc1NS(=O)(=O)c1ccc(Cl)s1 | – | inconclusive: 23.1 µM [falling, single point] |
| CCOc1cc(/C=C/c2cc(C(F)(F)F)[nH]c(=O)n2)ccc1O | – | inconclusive: 23.1 µM [falling, partial curve, poor fit] |
| Nc1c(C(=O)NCc2ccccc2)sc2nc(N3CCOCC3)c3c(c12)CCCC3 | – | inconclusive: 25.9 µM [falling, partial curve, poor fit] |
| Cc1ccc(NC(=O)C(=O)NCCN2CCN(Cc3ccc([N+](=O)[O-])cc3)CC2)cc1 | – | inconclusive: 6.51 µM [falling, single point] |
| CC(C)N1CC=C2C(C#N)=C(N)C(C#N)(C#N)C(c3ccccc3)C2C1 (centres undefined) | inactive: -15.6% | – |
| O=C(O)C1CCCC[C@H]1C(=O)Nc1ncc([N+](=O)[O-])s1 (some centres undefined) | – | inconclusive: 23.1 µM [falling, partial curve, poor fit] |
| COC(=O)c1c(C)[nH]c(O)c1C=Nc1ccc(C(C)C)cc1 | – | inconclusive: 5.8 µM [falling, full curve] |
| COc1ccc(Br)cc1CN(C)C(=O)c1ccccc1SCC(=O)N1CCCC1 | inactive: 1.95% | – |
| Cc1ccc(NC(=O)CNc2cccc(Br)c2)cc1S(=O)(=O)N1CCOCC1 | – | inconclusive: 13 µM [falling, partial curve, poor fit] |
| COc1ccc(/C=N/NC(=O)c2ccccc2)cc1OS(=O)(=O)c1ccccc1 | – | inconclusive: 16.4 µM [falling, partial curve, poor fit] |
| Cn1c(-c2ccc(C#N)cc2)c(C#Cc2ccccc2)c2ccccc21 | – | inconclusive: 18.4 µM [activator, single point] |
| CCOc1ccc2nc(NC(=O)c3ccccn3)sc2c1 | – | inconclusive: 29.1 µM [falling, single point] |
| O=C(CN(c1cccc(C(F)(F)F)c1)S(=O)(=O)c1ccccc1)Nc1cccc(Cl)c1 | – | inconclusive: 29.1 µM [falling, single point] |
| O=C(O)c1ccc(N=Nc2c(O)[nH]c3ccccc23)cc1 | – | inconclusive: 23.1 µM [falling, partial curve, poor fit] |
| COc1ccccc1CNC(=O)C(=O)NCC(c1cccnc1)N1CCN(c2ccc(F)cc2)CC1 (centres undefined) | – | inconclusive: 29.1 µM [falling, single point] |
| CCCN1C(=O)/C(=C/c2c(N3CCNC(=O)C3CC(=O)OCC)nc3c(C)cccn3c2=O)SC1=S (centres undefined) | – | inconclusive: 25.9 µM [falling, partial curve, poor fit] |
